According to PubChem BioAssay AID1794845 (National Center for Advancing Translational Sciences (NCATS), 2023):
The campaign covered roughly 6,900 compounds. Fewer than 10 were called active. Calls follow the shape of the dose curve; as a rule, active = well fitted curve in the direction sought with a large enough effect; inconclusive = small, poorly fitted or top-dose-only effect, or another doubt; inactive = no such curve, though single readings can be large or run the other way. The list shows a part of the results.

Chains of the proteins cited; added tags and fusions are not shown. Lines headed by an entry give the natural chain unless they say otherwise; changes in a name come on top.
UniProt C7C422: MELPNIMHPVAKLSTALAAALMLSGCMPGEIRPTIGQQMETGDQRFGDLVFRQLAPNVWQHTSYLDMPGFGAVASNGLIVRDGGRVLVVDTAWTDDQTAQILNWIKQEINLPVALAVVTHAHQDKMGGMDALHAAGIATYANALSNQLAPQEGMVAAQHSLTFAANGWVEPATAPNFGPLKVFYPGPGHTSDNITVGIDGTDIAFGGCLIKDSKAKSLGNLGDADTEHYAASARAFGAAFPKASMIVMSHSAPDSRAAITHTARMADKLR

target: Metallo-beta-lactamase type 2 (Klebsiella pneumoniae) (UniProt C7C422); test: qHTS to identify inhibitors of the New Delhi Metallo-beta-lactamase (NDM): primary screen against the NCATS Gemini Collection; conditions: NDM-1 enzyme, meropenem hydrolysis, absorbance 300 nm; at 38.4 µM (top of the series) unless noted; also: % of control where 0% means no effect
Method in brief: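 Meropenem hydrolysis (50 uM final) by 2 nM NDM-1 read as 300 nm absorbance after 30 min, following >30 min compound–enzyme preincubation in HEPES pH 7.0 with 1 uM ZnSO4 and 0.01% Tween20.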

Activity % (negative = inhibition), inactive:
COc1cccc([S+](=O)([O-])N2CC(N3CCc4ccccc43)C2)c1 -0.594%
N#Cc1cc(CN2CCCC(C(=O)Nc3cccc(-c4ccc(F)cc4)c3)C2)c[nH]1 (stereo not given) 0.808%
Cc1noc2nc3c(c(C(=O)N[C@H]4CC[C@H]4N)c12)CCC3 11.1%
CCCCN1C(=O)c2ccccc2C(C(=O)NC2CC2)C12CCCCC2 (stereo not given) 15.3%
O=C(NCC1CC1)C1CCc2ncc(-c3ccc(F)cc3)n2C1 (stereo not given) 20.8%
CC(C)C[C@H](NC(=O)[C@@H]1C[C@@H](n2nnc(C(N)=O)c2C(N)=O)CCN1C(=O)c1cnccn1)C(N)=O 7.56%
O=C(NCC1CCCO1)N1CCCCCCn2c(nnc2-c2ccc(F)cc2)CC1 (stereo not given) -1.27%
Cc1ccc(C2(O)CCN(c3nc(C)ccc3C(N)=O)CC2)nc1 -1.02%
O=S(=O)(c1ccccc1)N1CCC(F)(c2nc(-c3ccncc3)no2)CC1 5.28%
O=C1COc2ccc(OCc3cncs3)nc2CN1Cc1ccc(F)cc1 17.5% [at 57.5 µM]
C#CCOc1ccccc1CN1CCN(c2ncc(F)cn2)CC1 3.28%
CCNC(=O)N1C[C@H]2OC(=O)N(Cc3ccc(OC)c(OC)c3)[C@H]2C1 9.41%
CC(C)c1nc(-c2ccc(OC3CCNC3)cc2)no1 (stereo not given) 9.76%
CC(C)CCN1CC(Oc2ccc(F)cc2F)C1 -2.02% [at 57.5 µM]
Cc1cc(CNS(=O)(=O)c2ccc3c(c2)CCN(C(=O)C(O)C(C)C)C3)no1 (stereo not given) -1.18%
CCc1nc(CN2CCOC(c3ccc4cc(OC)ccc4c3)C2)no1 (stereo not given) 0.411%
CC(C)CNc1ncnc2c1CN(C1CNC1)C(=O)CN2C 15.2%
O=C1NCCCCCN(CC2CCCCC2)[C@H]2CCC[C@@H]12 4.15%
CCc1nc(CC)n2ccn(Cc3ccc(OC)cc3)c(=O)c12 2.7%
O=C(Nc1ccc2c(c1)OCCO2)N1CC(c2nc(CCOCC3CC3)no2)C1 5.68%
Cc1cc(C)cc(CCC(=O)N2CCN(c3ccc(C#N)cn3)CC2)c1 28.9%
CC(C)Cc1cc(CC2(NC3CCOCC3)COC2)no1 -0.303% [at 57.5 µM]
COCC(=O)N1CCC(c2nn(-c3ccccn3)c(=O)[nH]2)CC1 11.1% [at 57.5 µM]
O=S(=O)(Cc1ccccc1)NC[C@H]1Cn2cc(-c3ccccc3)nc2CO1 0.229% [at 57.5 µM]
CC(C)(Oc1nn(CCOc2ccccc2)c2ccccc12)C(=O)NCc1ccncc1 5.77% [at 57.5 µM]
FC(F)Oc1ccccc1CN(CC1CCN(C2CCCC2)CC1)CC1CCCO1 (stereo not given) 51.9%
COc1ccccc1-n1cc(C(=O)N2CCC3(CCNC(=O)CC3)CC2)cn1 -0.281%
CCN(Cc1nccn1C)C(=O)c1ccc(N2CCSCC2)nc1 -5.74%
COc1ccccc1-c1ccc2c(n1)CN(CC(=O)N1CCCC1)C(=O)CO2 7.19% [at 57.5 µM]
COCCCN1CC2(CCN(C(=O)CCn3cc(C)cn3)CC2)CC1=O 1.5%
O=C(NC1CCCCC1)N[C@H]1CO[C@H]2[C@@H]1OC[C@H]2O -1.33% [at 77.1 µM]
O=[S+]([O-])(Nc1ccccc1)c1ccc2c(c1)OCCN(Cc1cocn1)C2 -7.09% [at 57.5 µM]
CC(C)CN1CCc2[nH]cnc2C12CCN(C(=O)c1n[nH]c3c1CCC3)CC2 -5.09%
COc1ccc(-c2ncc3c(n2)OCCN(Cc2ccccc2)C3=O)cn1 5.46% [at 57.5 µM]
COc1ccc(-c2cc(N3CCCC(NC(=O)C4CCCC4)C3)n[nH]2)cc1 (stereo not given) 3.11%
O=C(Nc1ccccc1)N1CCC(Oc2ccccc2-c2nc(-c3ccccc3)no2)C1 (stereo not given) 0.401%
O=C1N[C@@H](Cc2cccs2)C(=O)N2CC[C@H](NS(=O)(=O)c3cccs3)C[C@@H]12 7.8% [at 57.5 µM]
CNC(=O)C1(N2CCC[C@H]2C(=O)NCCNC(C)=O)CCCCC1 11.9% [at 57.5 µM]
O=C(NCC(F)(F)F)c1cn2cc(-c3ccc(C(F)(F)F)cc3)sc2n1 2.73%
COCc1ccc(C(=O)NCc2cc(C)cc3c(C)c(C)[nH]c23)o1 19.8%
COCCn1c2c(c(=O)n1-c1ccccc1)CCN(C(=O)c1cccc(C#N)c1)C2 2.95% [at 57.5 µM]
O=C(c1ccc(C(F)(F)F)cc1)N1CC2CC(C1)[C@H]1CCCC(=O)N1C2 (stereo not given in full) 11.9%
COc1ccc(C(=O)Nc2cnc(-c3ccc(Cl)cc3)nc2)cc1 -2.84%
CCOCC(=O)N1CCC(Nc2cccn3ncnc23)CC1 12.2%
Cc1cc(C(=O)N2CCC3(CC2)CC(O)CCO3)c(C)o1 (stereo not given) -0.624%
Cc1ccccc1-c1[nH]nc2ncc(-c3c(C)noc3C)nc12 11.6% [at 57.5 µM]
Cc1nc([C@H]2CCNC[C@H]2NC(=O)C2CC2)n[nH]1 33.9%
C=CCn1cc(CN2CCOC(Cc3cccc4ccccc34)C2)c(C)n1 (stereo not given) 18.4%
COc1cccc(CN2CCOCCNC(=O)CC2)c1 46.9%
CCN1CCN(C(=O)c2ccc(-c3nnc4ccc(NC(=O)C5CC5)cn34)cc2)CC1 4.68%
O=C1CCCCC(C(=O)NC2CCCC2)N1 (stereo not given) 2.7%
O=C(NC[C@H]1O[C@@H](CO)[C@@H](O)[C@H]1N1CCN(c2ccccn2)CC1)Nc1ccccc1 14.7%
COCC[C@]1(O)CCN(C(=O)c2cccc(OC)c2C)C[C@H]1C -4.47%
CN(Cc1cccc(-c2nn[nH]n2)c1)C(=O)c1ccc(C2CCCNC2)cc1 (stereo not given) -0.815%
C[C@H](C(=O)N1CCOCC1)C1CC[C@@]2(C)Cc3sc(-c4ccccc4)nc3[C@@H](C)[C@@H]2[C@H]1O (stereo not given in full) 23.4%

Gathered by group: the entries above containing a furan ring, fused or not.
Activity % (negative = inhibition), inactive:
COCc1ccc(C(=O)NCc2cc(C)cc3c(C)c(C)[nH]c23)o1 19.8%
Cc1cc(C(=O)N2CCC3(CC2)CC(O)CCO3)c(C)o1 (stereo not given) -0.624%
